The values that follow come from article PMC3824344.

By UniProt entry, the sequences of proteins in these tests, tags left out.
UniProt Q9CXW3: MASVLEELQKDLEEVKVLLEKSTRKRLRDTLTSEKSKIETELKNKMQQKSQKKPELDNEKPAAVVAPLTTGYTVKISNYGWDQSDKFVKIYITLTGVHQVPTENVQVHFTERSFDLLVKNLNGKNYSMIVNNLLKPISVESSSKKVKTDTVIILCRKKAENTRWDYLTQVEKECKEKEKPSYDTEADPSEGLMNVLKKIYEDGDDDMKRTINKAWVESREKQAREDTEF
UniProt P63280: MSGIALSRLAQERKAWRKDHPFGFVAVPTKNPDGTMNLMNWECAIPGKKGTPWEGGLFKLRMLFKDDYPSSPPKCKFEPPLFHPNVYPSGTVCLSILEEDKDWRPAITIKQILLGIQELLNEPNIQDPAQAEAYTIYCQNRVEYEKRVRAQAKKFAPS

No constants are given. Whether binding was seen depends on the method and setting. In cells and extracts the contact can be indirect. Some entries that bind do so weakly or less than the wild type.

This assay addresses CacyBP/SIP-3xFLAG (Calcyclin binding protein and Siah-1 interacting protein, 3xFLAG-tagged) (mouse) (UniProt Q9CXW3). Nature of the assay: co-IP; NB2a cells co-transfected with Ubc9-HA and CacyBP/SIP-3xFLAG; 800 ug of extract protein incubated with anti-FLAG M2 agarose resin 3 h at 4 C in IP buffer (50 mM Tris-HCl pH 7.5, 50 mM KCl, 1 mM EDTA, 1 mM MgCl2, 0.1 % Triton X-100, 20 mM NEM); elution with 0.1 M glycine-HCl pH 3.5; Western blot with anti-Ubc9 and anti-CacyBP/SIP.

Take “Ubc9-HA (E2 SUMO conjugating enzyme Ubc9, HA-tagged) (from UniProt P63280 1-158)”: the binding entry is recorded as “binds”.
